Results from article PMC10163288.
The other results are listed elsewhere or left out.

B1: il2ra_site1_1z92_sap_19_mot_HEEHE_1462_000000005_0001_40_55_H_._2ec892f5ef7028bbd55197b25474b143_0001_0001_0000100004_0000001_0_0001_af2pred_0001_af2pred (protein)
chain: SSSSDERKEANARIVVELAVRTANLSEEDREELEELAEELVKRGVSWEELARILDEIANKLSSSS
B2: il2ra_site1_2b5i_normal_mot_22370d59370c406a0c205a431f537cfa_0001_af2_000000141_0001_1_31_H_._HHH_b1_03885_0001_0000200019_0000001_0 (protein)
chain: SSSDEEERTRLAVEIVWRLRYEYNLSNEDARLLNRLAAELVDEGVSEEEIEEILRRLAEELSSSS
B3: il2ra_site1_2b5i_sap_13_mot_HHH_b1_00095_000000044_0001_1_14_H_._0f91de3147d923573a0621cd0b52f718_0001_1_0001_0000400021_0000001_0_0001_af2pred_dldesign_0_af2pr … (protein)
chain: SSSSSPRVRGLLERVLDLRAAGDAEALAALREEIEAALAEATDPEDRRLLRLALRAARRPPSSSS
B4: il2ra_site2_3nfp_normal_mot_HHH_b1_01964_000000000_0001_19_36_H_._HHH_b1_03031_0001_0000500024_0000001_0_af2pred_0001_af2pred (protein)
chain: SSSSSDEELLQEAKELLEEGNLEEARRVLARAAALAIELGDEELAHEIASLAIRVAELLGSSSSS
B5: il2ra_site1_3nfp_normal_mot_HHH_b1_03195_af2_000000163_0001_42_58_H_._HHH_b2_02212_af2_0001_0000200016_0000001_0 (protein)
chain: SSSSDERHRANRLLKELIEAAKEGDEELIRQLEEEIKELAERANDERLERLLKQLEELLGSSSSS
B6: il2ra_site2_2erj_normal_mot_HHH_b2_02154_af2_000000141_0001_43_57_H_._HEEHE_3044_0001_0000500024_0000001_0_af2pred_0001_1_af2pred_swapped (protein)
chain: DDALSFEVLVELVAKMAGVPSVTVEYSNGQYHVELEGDNEALEHAALLVRSAAEAQDLDVEVETE
B7: il2ra_site2_2erj_sap_15_mot_HHH_b1_05208_000000212_0001_43_57_H_._HHH_b2_03262_0001_0000200008_0000001_0_0001 (protein)
chain: SSSSSDELRRAYELAVILLHLVARNDREEFEEISEEFRELVERLNSDNARENLEQLERQLSSSSS
B8: il2ra_site1_3nfp_normal_mot_HHH_b1_03753_af2_000000088_0001_41_54_H_._8822628e7dce7141ff94e8fdab707b8c_0001_1_af2_0001_0000200019_0000001_0 (protein)
chain: SEEEEEAEELLKRRLPPKAVEALRILAKAVKEGNPNAERRLRYDEEVAEKLGDEDVVRAIELLRK
B9: il2ra_site1_3nfp_sap_19_mot_HHH_b1_02637_af2_000000013_0001_1_18_H_._HHH_b2_02255_0001_0000600025_0000001_0_0001 (protein)
chain: DDEAFEAARLMRDPEFLRLILELIREELNVPPEEANQFLYELMQRAARGDPEAMRILAELAKEVK
B10: il2ra_site1_1z92_normal_mot_HHH_b1_04604_af2_000000029_0001_42_56_H_._HHH_b2_07020_af2_0001_0000300012_0000001_0 (protein)
chain: SSSSSSDVIELALRLARALRRGDEEEVQELLEELKRYAEERDNRAAREIAERIEKHLGSSSSSSS
B11: il2ra_site1_3nfp_normal_mot_HHH_b2_00128_000000255_0001_39_54_H_._HHH_b1_08068_0001_0000500021_0000001_0_af2pred_0001_af2pred (protein)
chain: SSSSSDREEEVEELLEEAKRIEDLQEASRVFREALKLALEARDPELRRLVEEVARELAGSSSSSS
B12: il2ra_site2_3nfp_normal_mot_HHH_b1_04960_000000149_0001_23_39_H_._HHH_b1_08457_0001_0000300025_0000001_0 (protein)
chain: SSSSDAEELVKRLEEELREAEEKGDEELLEELAFELFALAVDLQDQRLAAFAAELFIRLRSSSSS
B13: il2ra_site1_3nfp_normal_mot_HHH_b1_03014_af2_000000204_0001_43_57_H_._HHH_b1_04002_af2_0001_0000100001_0000001_0_af2pred_0001_af2pred_1 (protein)
chain: SSSSSDVEELIELLEELAHKVSERDRKFLEAVLRRVKRLLKRGDERRAEKAARSALRAASSSSSS
B14: il2ra_site1_3nfp_sap_13_mot_HHH_b1_03479_af2_000000099_0001_1_19_H_._HHH_b1_08236_af2_0001_0000200011_0000001_0_0001_af2pred_0001_af2pred (protein)
chain: SSSSSEAEKLFEKAARLAHEGNYEEAEEVLREALELAEERNSEALRKFLEAALRIVEARRSSSSS
B15: il2ra_site2_3nfp_sap_12_mot_HHH_b1_00660_af2_000000090_0001_40_57_H_._HHH_b2_05252_0001_0000300023_0000001_1_0001 (protein)
chain: SSSSSSDHEFYEEVVKLLKKALKIEDEEELRKVLEEAEELARELGSEVLRRAVEFTAKANSSSSS
B16: il2ra_site2_3nfp_normal_mot_0136b98644bc9a8eb58b95019b738ebb_0001_1_000000071_0001_1_13_H_._HHH_b2_00169_0001_0000500015_0000001_0 (protein)
chain: SSSSSEEREADRLLARAYELLLRGNPEEARRLLERAEELAEEAGDETLLKQIEWALKALENSSSS
B17: il2ra_site2_2erj_sap_25_mot_ca9fcc9ace360711d783d1260e4fbff1_0001_1_af2_000000007_0001_15_32_H_._7f39e2d7389de0c2f60e905c27398b6a_0001_1_af2_0001_0000400011_000 … (protein)
chain: SSSSSYEERVEELLEEAEEAYREGDLHAVYRLAVEALHVASELGDQELIRLVAEFVEKISDSSSS
B18: il2ra_site1_1z92_normal_mot_c9a8daa1dfea21d1414aecde54be4f54_0001_1_af2_000000024_0001_32_46_H_._a445c54e3280ddb545be3b99cff61ffd_0001_1_af2_0001_0000100005_000 … (protein)
chain: SLEEVEEELKKLVNDPKAEKIIRVVVELAKEAQAPPELLLRDLERTAKLLGDEELEEAVKELLRK
B19: il2ra_site2_3nfp_normal_mot_HHH_b2_04230_000000235_0001_39_52_H_._HHH_b1_07298_0001_0000100007_0000001_0_af2pred_0001_af2pred (protein)
chain: SSSSDYEEEVKRLLEELRELLEEGDEEKFRKLLAEVSELIYENNDSELYIELAEIVFEFENSSSS
B20: il2ra_site1_2b5i_sap_17_mot_HHH_b2_07052_af2_000000021_0001_1_15_H_._HHH_b2_07811_0001_0000200026_0000001_0_0001_af2pred_0001_af2pred_1 (protein)
chain: SSSSDEELKELDELYHEASELWRRGNPEEAKRVLEEARKLAEELGDERAAKEIEFILRRASSSSS
B21: il2ra_site1_3nfp_sap_19_mot_HHH_b1_02247_af2_000000083_0001_41_56_H_._819758749a7565068ab34538b75d2992_0001_1_af2_0001_0000900039_0000001_0_0001 (protein)
chain: SSSSDEEAEEFWRLIREAIEAQKEGDEELAKELAELLEELAKERNDESAAKAVEELLKALKSSSS
B22: il2ra_site1_1z92_normal_mot_HHH_b2_00494_000000030_0001_41_54_H_._0a28df53656836c8faf163f96bad2529_0001_1_0001_0000200039_0000001_1 (protein)
chain: SYLELLVELVKRISPETAEDVEEYIKFAKRSGLPPERILQRLLRLARDAGDEELTEIIEEVLEEH
B23: il2ra_site1_1z92_sap_15_mot_HHH_b1_03515_000000289_0001_1_19_H_._HHH_b2_03101_0001_0000100011_0000001_0_0001 (protein)
chain: STMEWMIRLAEELGNPEVAEALRELLKLLKEDPNNKELSHLLTLLAHLLQKDPEEVERLAEEALE
B24: il2ra_site2_2erj_normal_mot_HHH_b1_03107_000000098_0001_39_52_H_._HHH_b2_02929_0001_0000400028_0000001_0 (protein)
chain: SSSSSDTQELWERVAELLQEAAHIEDPEEAREVLEEARELAEEGNDPALERYVEYVRRDLSSSSS

target: il2ra, P01589; experiment: yeast display titration

Apparent Kd, inactive:
B1 no binding seen
B2 no binding seen
B3 no binding seen
B4 no binding seen
B5 no binding seen
B6 no binding seen
B7 no binding seen
B8 no binding seen
B9 no binding seen
B10 no binding seen
B11 no binding seen
B12 no binding seen
B13 no binding seen
B14 no binding seen
B15 no binding seen
B16 no binding seen
B17 no binding seen
B18 no binding seen
B19 no binding seen
B20 no binding seen
B21 no binding seen
B22 no binding seen
B23 no binding seen
B24 no binding seen

Five consecutive entries from above, for reference:
Apparent Kd, inactive:
B11 no binding seen
B12 no binding seen
B13 no binding seen
B14 no binding seen
B15 no binding seen
